US20230312741A1
Results are given in words; binding and its absence hold for the method and conditions named. Some entries that bind do so weakly or less than the wild type.

Experiments:
Test in all cases: flow cytometry, GS-CHO cells with CD73 mutant
[1] = target: T1, CD73 mutant F65A/H103A (human) (UniProt P21589)
T1 sequence: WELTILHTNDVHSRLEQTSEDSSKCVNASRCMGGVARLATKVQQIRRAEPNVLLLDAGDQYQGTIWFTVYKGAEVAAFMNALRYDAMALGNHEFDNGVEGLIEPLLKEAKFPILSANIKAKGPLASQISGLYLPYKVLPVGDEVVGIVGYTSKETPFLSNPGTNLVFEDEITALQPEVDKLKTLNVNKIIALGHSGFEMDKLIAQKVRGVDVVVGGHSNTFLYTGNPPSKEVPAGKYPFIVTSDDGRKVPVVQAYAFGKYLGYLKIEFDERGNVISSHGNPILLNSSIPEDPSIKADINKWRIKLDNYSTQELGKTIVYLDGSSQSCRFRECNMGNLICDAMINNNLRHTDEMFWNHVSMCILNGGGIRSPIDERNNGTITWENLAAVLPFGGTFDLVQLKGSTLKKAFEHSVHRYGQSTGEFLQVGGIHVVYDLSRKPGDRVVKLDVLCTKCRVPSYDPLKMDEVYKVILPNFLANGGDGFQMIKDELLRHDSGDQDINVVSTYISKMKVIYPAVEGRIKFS

[2] = target: T2, CD73 mutant Q201A/E203A (human) (UniProt P21589)
T2 sequence: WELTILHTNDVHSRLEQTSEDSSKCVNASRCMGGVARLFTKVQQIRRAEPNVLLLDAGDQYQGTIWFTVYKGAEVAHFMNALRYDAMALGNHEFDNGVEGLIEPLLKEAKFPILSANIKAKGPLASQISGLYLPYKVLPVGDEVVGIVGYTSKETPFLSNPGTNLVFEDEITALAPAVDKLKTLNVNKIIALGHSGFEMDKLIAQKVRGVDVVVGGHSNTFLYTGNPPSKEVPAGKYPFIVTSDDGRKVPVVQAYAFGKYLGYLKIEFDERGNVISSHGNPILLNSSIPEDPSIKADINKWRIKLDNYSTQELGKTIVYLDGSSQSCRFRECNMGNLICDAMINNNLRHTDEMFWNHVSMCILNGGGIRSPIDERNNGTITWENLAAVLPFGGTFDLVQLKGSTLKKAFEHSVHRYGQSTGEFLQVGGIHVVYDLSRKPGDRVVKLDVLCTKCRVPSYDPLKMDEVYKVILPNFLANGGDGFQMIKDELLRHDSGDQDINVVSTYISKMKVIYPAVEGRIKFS

[3] = target: T3, CD73 mutant H103A/W327A (human) (UniProt P21589)
T3 sequence: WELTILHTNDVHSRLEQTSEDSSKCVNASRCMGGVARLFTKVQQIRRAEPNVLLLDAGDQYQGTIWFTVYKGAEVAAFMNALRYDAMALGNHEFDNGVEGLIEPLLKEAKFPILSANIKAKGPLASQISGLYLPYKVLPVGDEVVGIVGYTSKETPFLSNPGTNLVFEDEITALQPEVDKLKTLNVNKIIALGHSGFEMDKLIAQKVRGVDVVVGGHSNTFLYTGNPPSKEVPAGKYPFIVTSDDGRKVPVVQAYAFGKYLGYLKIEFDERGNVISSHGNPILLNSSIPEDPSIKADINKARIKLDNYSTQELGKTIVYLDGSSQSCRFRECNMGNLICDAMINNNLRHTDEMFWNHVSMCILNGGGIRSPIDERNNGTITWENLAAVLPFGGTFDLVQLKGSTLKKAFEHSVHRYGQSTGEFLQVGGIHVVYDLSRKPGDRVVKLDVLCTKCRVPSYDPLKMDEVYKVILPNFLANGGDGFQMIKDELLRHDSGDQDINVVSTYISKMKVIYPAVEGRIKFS

[4] = target: T4, CD73 mutant L157A/S155A/L159A (human) (UniProt P21589)
T4 sequence: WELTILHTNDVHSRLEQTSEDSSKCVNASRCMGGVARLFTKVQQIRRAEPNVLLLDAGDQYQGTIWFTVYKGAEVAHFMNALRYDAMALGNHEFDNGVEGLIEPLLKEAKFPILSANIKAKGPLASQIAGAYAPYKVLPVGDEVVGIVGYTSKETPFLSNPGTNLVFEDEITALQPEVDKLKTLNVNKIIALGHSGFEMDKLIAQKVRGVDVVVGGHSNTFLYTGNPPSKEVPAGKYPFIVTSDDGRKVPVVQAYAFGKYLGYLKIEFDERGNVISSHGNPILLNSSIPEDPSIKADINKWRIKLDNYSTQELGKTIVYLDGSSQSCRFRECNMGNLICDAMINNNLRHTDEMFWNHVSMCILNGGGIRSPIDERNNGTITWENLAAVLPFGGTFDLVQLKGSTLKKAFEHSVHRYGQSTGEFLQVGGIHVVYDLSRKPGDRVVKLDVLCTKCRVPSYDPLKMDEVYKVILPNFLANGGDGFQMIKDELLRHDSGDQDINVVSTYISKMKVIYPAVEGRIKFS

[5] = target: T5, CD73 mutant E194A/E196A (human) (UniProt P21589)
T5 sequence: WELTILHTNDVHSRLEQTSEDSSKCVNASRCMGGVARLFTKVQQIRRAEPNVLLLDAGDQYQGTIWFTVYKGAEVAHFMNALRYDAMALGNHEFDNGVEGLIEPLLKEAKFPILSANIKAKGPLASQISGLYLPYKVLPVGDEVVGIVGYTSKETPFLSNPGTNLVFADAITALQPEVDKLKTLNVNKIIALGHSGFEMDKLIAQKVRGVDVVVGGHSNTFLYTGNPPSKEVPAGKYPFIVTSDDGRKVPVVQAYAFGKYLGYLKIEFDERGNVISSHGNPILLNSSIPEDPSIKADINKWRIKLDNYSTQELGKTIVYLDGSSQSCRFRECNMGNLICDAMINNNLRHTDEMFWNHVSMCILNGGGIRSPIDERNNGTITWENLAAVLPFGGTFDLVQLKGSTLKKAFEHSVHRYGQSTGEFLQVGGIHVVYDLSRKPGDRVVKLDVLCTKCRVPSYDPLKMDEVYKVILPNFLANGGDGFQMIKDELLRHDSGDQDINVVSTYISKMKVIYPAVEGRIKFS

Measured: binding

B1: ADI-37505 (antibody, human IgG4 S228P, kappa, F234A L235A, V domains shown)
VH: QVQLVESGGGLVQPGGSLRLSCAASGFTFSNYAMTWVRQAPGKGLEWVSAISGRGTATYYADSVKGRFTISRDNSKNTLYLQMNSLRAEDTAVYYCARGGPYGSGSYWDTFDYWGQGTLVTVSS
VL: EIVMTQSPATLSVSPGERATLSCRASQSVSSNLAWYQQKPGQAPRLLIYGASTRATGIPARFSGSGSGTEFTLTISSLQSEDFAVYYCQQYTNHYTFGGGTKVEIKR
binds: all assays above

B2: ADI-37506 (antibody, human IgG4 S228P, kappa, F234A L235A, V domains shown)
VH: EVQLLESGGGLVQPGGSLRLSCAASGFTFSNLAMSWVRQAPGKGLEWVSAISGRATSTYYADSVKGRFTISRDNSKNTLYLQMNSLRAEDTAVYYCARGGPYGSGSYWDTFDYWGQGTLVTVSS
VL: EIVMTQSPATLSVSPGERATLSCRASQSVSSNLAWYQQKPGQAPRLLIYGASTRATGIPARFSGSGSGTEFTLTISSLQSEDFAVYYCQQYTNHYTFGGGTKVEIKR
binds: all assays above
